{"sequences": {"note": "Amino acid sequences for entries named in this document (tags omitted).", "UniProt P23242, whole entry": "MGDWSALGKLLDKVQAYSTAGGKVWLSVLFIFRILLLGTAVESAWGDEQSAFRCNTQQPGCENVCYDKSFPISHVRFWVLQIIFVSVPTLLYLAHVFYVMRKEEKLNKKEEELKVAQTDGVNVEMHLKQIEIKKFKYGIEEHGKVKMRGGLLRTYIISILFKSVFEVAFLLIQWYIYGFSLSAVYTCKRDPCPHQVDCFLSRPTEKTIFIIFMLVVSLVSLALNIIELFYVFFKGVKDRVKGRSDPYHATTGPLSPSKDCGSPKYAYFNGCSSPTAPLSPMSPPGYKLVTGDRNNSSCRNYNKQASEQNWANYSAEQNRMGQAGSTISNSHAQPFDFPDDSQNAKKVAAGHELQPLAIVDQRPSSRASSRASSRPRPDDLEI"}, "source": "patent US12162937B2", "about": "“Methods of treating an inflammatory disorder by administering an antibody which binds to a connexin CX43 hemichannel” (BOARD OF REGENTS OF THE UNIVERSITY OF TEXAS SYSTEM, priority 2013, dated 2024)", "target": "Cx43 hemichannels (Mus musculus, UniProt P23242)", "test": "Ethidium bromide dye uptake in MLO-Y4 osteocytic cells treated with AD", "assay_type": "cell-based", "set-up": "endogenous in cells; host or cells: MLO-Y4 osteocytic cells", "settings": "20 μM AD for 30 min, presence of calcium", "experimental": "Study was carried out in calcium conditions. Low calcium conditions were used as control (opens hemichannels).\nMethods for determining if a reagent opens hemichannels include one or more of the following steps: • (a) Isolating, obtaining, or producing a connexin expressing cell or cell line. For example, isolating primary osteocytes from calvcria. Other cell types can be isolated using other methods known in the art. In certain aspects calvarial osteocytes are isolated from animals (e.g., 16-day embryonic chicken calvaria or new-born mice). Animals are decapitated and calvarial bone is dissected and quickly dipped in 70% alcohol. […] Permeability tracer uptake is determined by detecting the amount of tracer inside the cells. […] Fluorescence can be recorded at regions of interest in different cells with an eclipse filter on a microscope based on the wavelength of the fluorescence of the tracer or other probe(s) being used. […] The collected data can be illustrated as fold difference of initial fluorescence and fluorescence at the time of interest versus the basal fluorescence.\nFor snapshot images, cells can be exposed to permeability tracer for 5-10 minutes, rinsed multiple times with PBS, and fixed with formaldehyde. In certain aspects, at least three microphotographs of fluorescence fields are taken with a microscope. […] The average of pixel density of random cells is measured. […]", "note": "Entries after “also recorded” stand apart in the source; their conditions may differ."}
{"smiles": "NCCCC(O)(P(=O)(O)O)P(=O)(O)O", "note": "[AD, alendronate]", "values": [{"measurement": "opening of osteocytic Cx43 hemichannels (ethidium bromide dye uptake)", "result": "opening of osteocytic hemichannels induced by AD; also recorded: opened"}]}
